Test results as given in PubChem BioAssay AID1508600 (Functional Genomics Laboratory (NCATS/FGL), 2020).
Hit rate of the full screen: of about 53,000 sequences, about 3,700 (7%) were called active.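 How the source made its calls: active means gene knockdowns whose robust z-score for IL-1 alpha signal is at least 2 or at most -2, so actives lie on both sides; inactive means the rest.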 Some of the results follow.

experiment: Components of the Cytosolic LPS Sensing Pathway: Gene Identification via Genome-wide siRNA Screen; settings: RAW264.7 macrophages, IL-1a HTRF, actives lie on both sides, screened at 100 nM (by protocol), cells primed 5 h with Pam3CSK4 first;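 further: robust z of the log signal after scaling to non-targeting control siRNA wells of the plate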
Summary of the method: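 RAW264.7 mouse macrophages reverse-transfected with single siRNAs (100 nM final) for 48h, primed with Pam3CSK4 for 5 hours, then transfected with LipidA for 24 hour. Supernatant IL-1a read by HTRF; values normalized to negative-control median, log-transformed robust z-scores.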

Sequence | z-score
GGCUUUCAUAAUAUAAGACTT against Kera | inactive: 0.0662
CGCAGUCCUUGACAUUAAATT against Rab3a | inactive: 0.0328
GGCCCAUGUAACAAAUAGATT against Tspan13 | inactive: -0.215
GGUUUUAAGCUUGCUUAUGTT against Ucma | inactive: 0.4
CGUGCCUGCUCAAUUAAUUTT against 1700067P10Rik | active: 2.46
GGUCUACGCUAUCCUAGUUTT against Grin1 | active: -2.23
CCUGAAUAUAUAGUGCAUGTT against Cend1 | inactive: -0.265
GGUGAUGUUUCUCACUGUCTT against A2m | inactive: -1.17
CCAAGAGCUGAAACAAGAATT against Ankrd12 | active: -2.01
GGCACUUUUAUUCUUCUCUTT against Zmpste24 | inactive: -0.362
GCACUGAAAGUCUACGUCCTT against Rara | inactive: 0.207
GCACAUUGCUCACAAGCAUTT against Zfp942 | inactive: 0.669
GGUGUUCCUGGUGAAGCAATT against Camk1g | inactive: 0.875
GGCGGAUAUCUUGAAAAACTT against Ntf3 | inactive: -0.0373
GCCUCAAGUUGAUAAGGAUTT against Ubqlnl | inactive: -0.689
GGCUAUGGACCGAAAGAUUTT against Dgcr6 | inactive: -1.42
CCUGACAGGUUUAUGUGAATT against Cbl | inactive: 0.836
GGCUAACUCCCAUAAAGAUTT against Ces4a | inactive: -1.31
GCUGGAAAACCGACAACUCTT against Gripap1 | inactive: -0.175
GGACCGACCAAGUUUUUCATT against Tm2d2 | inactive: 0.997
GGUCUUUCAAGUUGCAUACTT against Lama1 | inactive: 0.491
GGUUAGACCAAUAAAAAGCTT against Pfdn1 | inactive: 0.154

Sequence | z-score
GGCAAAUGGAAACAGCCAUTT against Serpina1d | inactive: -1.56
GUUUUUCAUACAGUAGUAGTT against Vmn1r27 | inactive: 0.42
CGUUGUUCUUAUCCUGAGGTT against Olfr448 | inactive: -0.864
GAAGCCUAUUGCUCAAGAUTT against Fbxw24 | inactive: 0.896
CCGCCAUGACAUUAUGCUGTT against Klk15 | inactive: 0.433
CCUGUGCUCUUAUUAUCAATT against Rpp14 | inactive: 0.693
GGCUUUCAGUAAGAAGAUGTT against Snx33 | inactive: -1.24
GCUGAAAUCUCCAAAUACCTT against Arl5b | inactive: 1.52
GGUUCUUUUUGGUUUAGGUTT against Tm9sf4 | inactive: 0.259
GGGUCCAAUAAACAUGUCUTT against B3galt4 | inactive: 0.234
GGAAAUGCAGUUGUGAAUGTT against Rab4a | active: -2.03
CGGGAGACUGGUUAUCAACTT against Eipr1 | inactive: -1.77
GGCCAUCUUGAAUUUUUUATT against 2410002F23Rik | inactive: 0.0652
GGAAGGCCAUUUCAACUAATT against Olfr1367 | inactive: 1.54
GGGCACACUGAUGUGGUCATT against Fem1b | inactive: -1.55
GCACAAGCCUCAAGACGUATT against Mgat4b | inactive: 0.182
GGACGGAUCUGAAAGAUACTT against Zfp251 | inactive: 0.325
GGUGUUUUAUACACUCUGUTT against Mgme1 | inactive: -1.85
ACAAUGGUGAGUAAUAGCATT against Olfr730 | inactive: -0.0347
GGUCAUACACUUCUGCACATT against Ap5z1 | inactive: -0.805
GCAAUUUCUAUUUGGUGGGTT against B630019K06Rik | inactive: -0.354
GGCAAGACCCAUUAAAUGATT against B230219D22Rik | inactive: 0.951

Individual results from the entries so far:
Value for GGGUCCAAUAAACAUGUCUTT against B3galt4 under z-score: inactive: 0.234
Value for ACAAUGGUGAGUAAUAGCATT against Olfr730 under z-score: inactive: -0.0347
Value for GGCCAUCUUGAAUUUUUUATT against 2410002F23Rik under z-score: inactive: 0.0652
Value for GGAAAUGCAGUUGUGAAUGTT against Rab4a under z-score: active: -2.03

Going on with the list:

Sequence | z-score
GGUCUAUGCAAUAAAGGUUTT against Sphk2 | inactive: -0.351
GCUCAAUCGAUACUCAGAUTT against Lzts1 | inactive: -0.144
GCAUCAUUAUCUCGGUACUTT against Izumo1 | inactive: 1.71
GGAUAUCAUCAGUUUGGUUTT against Iigp1b | inactive: -0.0729
GGAAGCAGCAAAGAAGUUGTT against Olfr1109 | inactive: 0.918
GGCAUCAUAAUGGCAUCGGTT against Aoc2 | inactive: -1.15
UUUGAACUUUCGAACCCGCTT against Tuba1c | inactive: 1.89
GGCAAGGACUCCAAGGACATT against Wdr45 | inactive: -1.31
CCAAAAUGAGGGCAUCUAUTT against Mvp | inactive: -1.7
GGAUUGUCGAAUGGGUGCUTT against Oard1 | inactive: -1.78
GGCUUGGUGAGCUACCUACTT against Wdr62 | inactive: -0.839
GGAAAUGUUGCCGUUGUCCTT against Mfsd8 | active: 2.13
CCACUAUGAAUCGUGGUUCTT against Sp6 | inactive: 0.731
GGCCGAAGAAUUCAUCUUUTT against Pomgnt2 | inactive: -0.339
GGGUCCUUUGUCACAUUCATT against Psmd7 | inactive: 1.34
GGAUUAAUGUUUCCUGACUTT against Mturn | inactive: 0.704
GGUAUUCAAGGUAAGAAAGTT against Ercc5 | inactive: -1.14
CCUUCAGAUCAUUCUUAGATT against Klhl9 | inactive: 0.493
GCAAGUUUCACAGAAUGACTT against Loxl4 | inactive: 0.058
GCGCAGCACAGGUUUUGAATT against Klf10 | inactive: -0.217
GGCUGAGUUACGGUUAAAGTT against Ndufb5 | inactive: 0.187
GGUUUCUCGAGAAGUUACCTT against Nab1 | inactive: -1.24

Sequence | z-score
CCUCAGUGGUAUAGAGGUATT against Gpr84 | inactive: 0.788
GGAUUCUGAACACUUUUUCTT against Pot1a | active: -2.02
CCUACAGAGACUAUUCACUTT against Fiz1 | inactive: 1.34
GCUCAGUAAUCUGAGGCCATT against Lox | active: -2.03
CCGGCUAAACAUUAUUCAUTT against Fpgs | inactive: 1.85
CCUCAUGUCUGGCAUCUUGTT against Egr4 | inactive: -1.7
GGAAUAUAUCUCCAAACAGTT against Ccdc7b | inactive: -0.469
GGUAUAAAGGAUGCAUUCATT against Osmr | inactive: 0.512
GCCUUCUGCCGUUAUUAAUTT against Slc15a5 | inactive: 1.56
GGAAAAUGAGCAAGAAGAATT against Syt12 | inactive: -0.784
GCUCAAACUUUACUAUACATT against Cdh6 | inactive: -0.675
GGACCUUCUAGAAGACAAGTT against Gna11 | inactive: 1.31
GGACCAAGUAUCAUGAUGUTT against Zfp369 | inactive: 0.222
GGGAUGAAGACACGAUCAUTT against Sult2a8 | inactive: 1.26
GGCCAGAACUACGAAGCCATT against Capn12 | inactive: 0.981
CGAACAUUCCUUCCAUAACTT against Kcnd3 | inactive: 0.609
GGCUGAGAGUCCAAAAAGGTT against Dok3 | inactive: -0.126
GGGUCUUGUUAAUCUGUAUTT against Med1 | inactive: -0.318
CCUUCCAUGGUGAGGAUAATT against Stim1 | active: -2
GCUUGGAAGACAUUGACCCTT against Brsk2 | inactive: -0.996
GGGUAUCAUUACAGAUACGTT against Tpbg | inactive: 0.277
GGAAGUCACUUGCCCAAGGTT against Prm2 | inactive: 0.757

Sequence | z-score
GGCACUGCACUUUAACAUATT against Serpinb7 | inactive: -0.402
CCACCAUUCUACAUAAUCATT against Abl1 | inactive: 1.28
GGAGAACCACUACAUGCAATT against Bcl2l1 | inactive: 0.453
CCCUGUUACGAAGUUUAACTT against Slc17a7 | inactive: -1.27
CCAAGGUCUAAAAAAAUAGTT against Adamts19 | inactive: -0.907
GGAAAAAAGCCUCAUCGGATT against Wdr63 | inactive: 0.676
GGAGAAAGUCAUCUUUGAUTT against Cdk5rap2 | inactive: -0.41
CGCCUCACGAUUUUGAUGATT against Cert1 | inactive: -0.768
GGACGGGAUUGAGCCUAUGTT against Eif4e | inactive: 1.65
GGUAUAGACUGGAAGUAUUTT against Dnajc3 | inactive: 0.0873
GGCUAUGAAAGUGACAAUCTT against Tsen15 | active: -2.74
GCCUAUUGAGAUCUACGGCTT against Elac1 | inactive: 0.534
GCUACAAGAAAUCUUGAUGTT against Tspan3 | inactive: -0.0988
GCAAAGCUGAUGCGAGCCUTT against Znhit3 | inactive: -0.333
CCAAUGCUUGUGAUAAGCCTT against Krt33a | inactive: -0.105
GGUCAGUGGAGCUCUCUAUTT against Fam234a | inactive: 1.43
GGAGAAAACUUUCUGUGUGTT against Nrg1 | inactive: -0.887
GGAUGAUUCUGGGUUACAGTT against Pwwp3a | active: -2.26
CCUCAUAGGAGAAUCUCCCTT against Plin5 | inactive: -0.905

In a second layout: entries from further up
GCACUGAAAGUCUACGUCCTT against Rara
  z-score: inactive: 0.207
CCUGUGCUCUUAUUAUCAATT against Rpp14
  z-score: inactive: 0.693
